Data on 5 molecules can be found in US20200197536A1.

Protein sequences, listed by entry. Tags and fused reporters are not part of them. Residues count along the entry.
UniProt P08581, residues 25-932: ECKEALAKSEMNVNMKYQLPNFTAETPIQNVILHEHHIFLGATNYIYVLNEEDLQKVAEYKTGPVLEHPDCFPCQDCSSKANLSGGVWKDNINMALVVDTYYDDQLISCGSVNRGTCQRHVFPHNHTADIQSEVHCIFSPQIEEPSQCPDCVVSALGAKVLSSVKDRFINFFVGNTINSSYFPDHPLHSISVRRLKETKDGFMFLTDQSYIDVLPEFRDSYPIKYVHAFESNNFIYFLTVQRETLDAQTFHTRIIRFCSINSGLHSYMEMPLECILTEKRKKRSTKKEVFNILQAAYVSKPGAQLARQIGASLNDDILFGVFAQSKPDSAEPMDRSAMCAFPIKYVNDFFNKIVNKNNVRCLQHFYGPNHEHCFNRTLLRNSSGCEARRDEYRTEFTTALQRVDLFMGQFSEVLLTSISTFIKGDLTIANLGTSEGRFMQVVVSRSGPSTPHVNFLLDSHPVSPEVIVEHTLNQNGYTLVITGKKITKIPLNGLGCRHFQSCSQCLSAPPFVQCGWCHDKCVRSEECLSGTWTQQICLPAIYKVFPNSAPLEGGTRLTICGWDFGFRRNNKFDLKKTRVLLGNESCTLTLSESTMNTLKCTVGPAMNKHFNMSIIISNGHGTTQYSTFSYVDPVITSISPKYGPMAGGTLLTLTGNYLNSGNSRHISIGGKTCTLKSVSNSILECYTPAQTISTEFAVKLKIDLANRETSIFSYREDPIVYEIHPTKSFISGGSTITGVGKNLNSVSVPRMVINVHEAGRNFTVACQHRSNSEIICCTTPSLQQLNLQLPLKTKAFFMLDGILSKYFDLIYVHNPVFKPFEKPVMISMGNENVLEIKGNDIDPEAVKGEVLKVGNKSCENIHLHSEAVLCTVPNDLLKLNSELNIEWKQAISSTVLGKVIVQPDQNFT

No constants are given. Whether binding was seen depends on the method and setting. Some entries that bind do so weakly or less than the wild type. Tags and fused reporters may be left off the sequences shown.

This assay has as its target recombinant human Met (rhMet), fused to the Fc domain of human IgG (human) (UniProt P08581). Put plainly: phage display affinity selection on rhMet-Fc, five rounds; phage ELISA on rhMet.
TATFWFQ [TATFWFQ (Thr-Ala-Thr-Phe-Trp-Phe-Gln)]: the binding result is “binds”.
For the molecule TSPVALL [TSPVALL (Thr-Ser-Pro-Val-Ala-Leu-Leu)], the binding result is on record as “binds”.
In the case of ASVHFPP [ASVHFPP (Ala-Ser-Val-His-Phe-Pro-Pro)], the binding entry is reported as “binds”.
Next, WPRLTNM [WPRLTNM (Trp-Pro-Arg-Leu-Thr-Asn-Met)]: “binds”; IPLKVHP [IPLKVHP (Ile-Pro-Leu-Lys-Val-His-Pro)]: “binds”.
